# PubChem BioAssay AID504327 (National Center for Advancing Translational Sciences (NCATS), 2011)
# By UniProt entry, the sequences of proteins in these tests, tags left out.
# UniProt Q92830, whole entry, looked up: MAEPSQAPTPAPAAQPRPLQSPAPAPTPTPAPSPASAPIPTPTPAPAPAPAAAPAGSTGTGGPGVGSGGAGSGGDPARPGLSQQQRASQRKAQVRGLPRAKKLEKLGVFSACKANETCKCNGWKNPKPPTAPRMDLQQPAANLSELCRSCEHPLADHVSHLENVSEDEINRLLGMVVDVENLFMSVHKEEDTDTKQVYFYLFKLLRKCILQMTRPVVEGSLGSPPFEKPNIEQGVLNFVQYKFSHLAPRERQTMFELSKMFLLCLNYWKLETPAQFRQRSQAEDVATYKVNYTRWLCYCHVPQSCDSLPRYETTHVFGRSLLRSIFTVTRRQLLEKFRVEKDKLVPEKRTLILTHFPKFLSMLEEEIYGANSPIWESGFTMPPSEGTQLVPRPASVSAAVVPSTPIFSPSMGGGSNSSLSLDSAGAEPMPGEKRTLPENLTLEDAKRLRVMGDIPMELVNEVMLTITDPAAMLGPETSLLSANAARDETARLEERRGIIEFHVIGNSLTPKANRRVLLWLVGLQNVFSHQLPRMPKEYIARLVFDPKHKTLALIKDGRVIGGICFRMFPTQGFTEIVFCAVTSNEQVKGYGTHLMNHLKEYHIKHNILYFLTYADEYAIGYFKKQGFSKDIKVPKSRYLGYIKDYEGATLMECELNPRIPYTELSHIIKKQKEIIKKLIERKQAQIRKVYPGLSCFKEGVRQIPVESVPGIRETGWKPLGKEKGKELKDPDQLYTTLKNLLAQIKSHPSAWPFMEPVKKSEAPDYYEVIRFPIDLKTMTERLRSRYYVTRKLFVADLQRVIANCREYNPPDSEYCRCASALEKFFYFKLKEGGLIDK
# About 820 (0.21%) of roughly 390,000 compounds were called active. Inconclusive means that the source gave no clear call. Such entries were picked first, then a sample of the others. The call rests on the fitted dose curve; in most records, active means well fitted inhibition curve with a large enough effect; inconclusive means small, poorly fitted or top-dose-only effect, or another doubt; inactive means no such curve, though single readings can be large or run the other way. Potencies of inconclusive entries are doubtful fits and often do not repeat. The source holds several records for some structures; these can differ, active in one and inactive in another.
# Biological target: Histone acetyltransferase KAT2A (Homo sapiens) (UniProt Q92830)
# Test: qHTS Assay for Inhibitors of GCN5L2
# Conditions: GCN5L2 HAT assay, ThioGlo1 CoA-SH fluorescence; activity change, negative = inhibition: at 58.9 µM (top of the series) unless noted
# Outline: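 GCN5L2 (20nM final) in 50mM HEPES, 0.1mM EDTA pH 7.5, 0.01% Tween-20 was preincubated 15 min at room temperature with compound, then given ThioGlo1 (50uM), H3(1-25) peptide (75uM) and acetyl-CoA (70uM); CoA-thiol fluorescence (Ex340/Em540) was read at 0 and 20 min.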
# On the % scale 0 is the no-effect control and ±100 the full control effect; potency means the concentration at half of the fitted maximal effect.
Compound,Potency,"activity change, negative = inhibition"
O=C(/C=C/c1ccco1)Nc1sc2c(c1C(=O)O)CCC2,"inconclusive: 35.5 µM [inhibitor, single point]",–
O=C(NCc1cccnc1)c1ccc(NS(=O)(=O)c2ccc(F)cc2)cc1,–,inactive: -0.847%
O=c1c(Cc2ccc(F)cc2)c(O)ccn1Cc1ccc(Cl)cc1Cl,"inconclusive: 7.08 µM [inhibitor, single point]",–
CCc1ccc(OC(=O)c2cccnc2)cc1,"inconclusive: 3.16 µM [inhibitor, partial curve, poor fit]",–
O=C(C1CCN(S(=O)(=O)c2cccc3nsnc23)CC1)N1CCCCC1,–,inactive: -14.4%
N#CCCn1c(=O)c(-c2ccc(Cl)cc2)nc2cnc(N3CCOCC3)nc21,–,inactive: -11.3%
C=CCc1ccc(OCCOCCOc2cccc3cccnc23)c(OC)c1,–,inactive: -1.98%
C[N+](C)(C)CCC(=O)c1cccc2ccccc12,"inconclusive: 25.1 µM [inhibitor, single point]",–
CCn1c(C)cc2c(c1=O)C(c1ccccc1)C(C(=O)OC)=C(N)O2 (configuration not stated),"inconclusive: 0.562 µM [inhibitor, single point]",–
CCOc1ccccc1NC(=O)CC1(CC(=O)N2CCOCC2)CCCC1,"inconclusive: 17.8 µM [inhibitor, partial curve]",–
C=CCc1cccc2cc(-c3nc4ccc(C(=O)O)cc4[nH]3)c(=O)oc12,"inconclusive: 28.2 µM [inhibitor, single point]",–
CC(NS(=O)(=O)c1ccc2c(c1)C(=O)c1cc(S(=O)(=O)NC(C)C(=O)O)ccc1-2)C(=O)O (configuration not stated),–,inactive: 0.148%
O=C(O)CC(CC(=O)Nc1ccccc1C(=O)O)c1ccccc1 (configuration not stated),"inconclusive: 39.8 µM [inhibitor, single point]",–
Cc1c(C(=O)Nc2nc3ccccc3[nH]2)oc2ccccc12,–,inactive: -20.5%
COC(=O)Cc1c(C)c2ccc(O)c(CNCc3ccc(OC)c(OC)c3)c2oc1=O,"inconclusive: 35.5 µM [inhibitor, single point]",–
C[C@@H](C(=O)Nc1nc(-c2ccccn2)cs1)N1C(=O)C2CCCCC2C1=O (some centres not stated),"inconclusive: 35.5 µM [inhibitor, single point]",–
COC(=O)c1ccccc1NC(=O)CC(=O)Nc1ccccc1C(=O)OC,–,inactive: -18%
CCOc1cc(/C=N/N=C2/NC(=O)C(CC(=O)O)S2)ccc1OCc1ccc(Cl)cc1 (configuration not stated),"inconclusive: 39.8 µM [inhibitor, single point]",–
Cc1ccc(S(=O)(=O)Nc2ccccc2CNc2ncc(Br)cc2Br)cc1,"inconclusive: 7.08 µM [inhibitor, single point]",–
Cc1ccc(-n2ncc(C(=O)NCCN3CCN(C)CC3)c2C2CCN(C(=O)OC(C)(C)C)CC2)cc1,"inconclusive: 0.708 µM [inhibitor, single point]",–
COc1cccc(-c2oc3ccc(C)cc3c(=O)c2O)c1,–,inactive: -17.6%
COc1cc2c(-c3ccc4cc[nH]c4c3)c(-c3ccc(C#N)cc3)oc(=O)c2cc1OC,"inconclusive: 31.6 µM [inhibitor, single point]",–
O=C(CSc1ncn[nH]1)NCc1ccccc1,"inconclusive: 0.891 µM [inhibitor, single point]",–

Compound,Potency,"activity change, negative = inhibition"
Cc1ccc(Cn2c(CNC(=O)c3ccc(Cl)c([N+](=O)[O-])c3)nc3cccnc32)cc1,"inconclusive: 39.8 µM [inhibitor, single point]",–
C/C(=N/NC(=O)c1cccs1)c1ccc(NC(=O)COc2ccc(Cl)cc2Cl)cc1,–,inactive: -12.6%
C#CCCCCCCCCCCCCCCCC(=O)O,active: 11.2 µM,–
CCOc1ccc(CCNC(=O)COC(=O)COc2cc(C)cc(C)c2)cc1OCC,"inconclusive: 7.08 µM [inhibitor, single point]",–
COc1ccc(C(C)=O)cc1COC(=O)c1cc(C)oc1C,–,inactive: -3.45%
Fc1ccc2[nH]c3c(N4CCN(c5ccccc5)CC4)ncnc3c2c1,"inconclusive: 2.82 µM [inhibitor, partial curve]",–
O=C(COC(=O)c1cccc(S(=O)(=O)N2CCc3ccccc3C2)c1)NCc1ccco1,"inconclusive: 35.5 µM [inhibitor, single point]",–
Cc1cc2nc(-c3ccc(SCc4ccc(C(=O)O)cc4)nc3)[nH]c2cc1C,"inconclusive: 15.8 µM [inhibitor, single point]",–
COc1ccc(OC)c2nc3c(cc12)CCC3,"inconclusive: 2.82 µM [inhibitor, full curve, poor fit]",–
COC(=O)CCC/C=C1/SCC(NC(=O)c2ccccc2)C1=O (configuration not stated),–,inconclusive: -40.4% [inhibitor]
CCOc1c(CNc2nnnn2C)cccc1OC,–,inactive: 2.66%
Cc1ccc(C2CC(=O)Oc3cc4c(cc32)OCO4)cc1 (configuration not stated),"inconclusive: 35.5 µM [inhibitor, partial curve, poor fit]",–
CCCCOc1ccc(C(=O)N(Cc2ccco2)Cc2ccco2)cc1,"inconclusive: 39.8 µM [inhibitor, single point]",–
COCCCN1C(=O)C(O)=C(C(=O)c2ccco2)C1c1ccccc1 (configuration not stated),–,inactive: -9.75%
Cc1[nH]n(-c2ccccc2)c(=O)c1/C=N/Nc1nncc(-c2ccccc2)n1,"inconclusive: 39.8 µM [inhibitor, single point]",–
O=C(Nc1ccccc1C(=O)OCC(=O)N1CCc2ccccc2C1)c1ccco1,"inconclusive: 10 µM [inhibitor, partial curve, poor fit]",–
CCOC(=O)c1ccccc1NC(=O)COC(=O)CN1C(=O)C2CC=CCC2C1=O (configuration not stated),"inconclusive: 25.1 µM [inhibitor, single point]",–
COc1ccc(-c2cc(C(=O)N(C)CC(=O)Nc3cccc(F)c3)c3ccccc3n2)cc1,"inconclusive: 10 µM [inhibitor, partial curve]",–
O=C(NC(=S)Nc1ccccc1C(=O)O)c1ccc(-c2ccc(Br)cc2)o1,"inconclusive: 39.8 µM [inhibitor, single point]",–
Cc1cc(C(=O)N2CCCC(Nc3ccc(C(C)C)cc3)C2)nn1C (configuration not stated),"inconclusive: 7.08 µM [inhibitor, single point]",–
CCOC(=O)c1c(N2C(=O)C=CC2=O)sc(C)c1C,"inconclusive: 35.5 µM [inhibitor, single point]",–
Cc1ccc2c(c1)[C@@H]1CN(C)CC[C@@H]1N2S(=O)(=O)c1ccc(F)cc1,"inconclusive: 25.1 µM [inhibitor, single point]",–
CCc1cc(=O)oc2c(C)c(OCC(=O)N3CC[C@@]4(O)CCCC[C@H]4C3)ccc12,"inconclusive: 7.08 µM [inhibitor, single point]",–

# Individual results from the results shown.
# `Cc1[nH]n(-c2ccccc2)c(=O)c1/C=N/Nc1nncc(-c2ccccc2)n1` – Potency: inconclusive: 39.8 µM [inhibitor, single point]
# `COCCCN1C(=O)C(O)=C(C(=O)c2ccco2)C1c1ccccc1` (configuration not stated) – activity change, negative = inhibition: inactive: -9.75%

# (continued)

Compound,Potency,"activity change, negative = inhibition"
COc1ccc(CCNC(=O)c2ccc(NS(=O)(=O)c3ccc4[nH]c(=O)[nH]c4c3)cc2)cc1,"inconclusive: 31.6 µM [inhibitor, single point]",–
NS(=O)(=O)c1ccc(N/N=C/c2ccc(O)c(O)c2O)c([N+](=O)[O-])c1,"inconclusive: 35.5 µM [inhibitor, single point]",–
CCn1c(=NC(=O)c2cccc(N3C(=O)CCC3=O)c2)sc2c(C)ccc(OC)c21,–,inactive: -25.6%
Cc1c2n(c3ccccc13)CCC2=O,"inconclusive: 8.91 µM [inhibitor, single point]",–
Cc1ccc2nc(CN3CCN(C(=O)Nc4ccc(C)c(F)c4)CC3)oc2c1,–,inactive: 9.87%
CN(C)[C@@H]1C(=O)C(C(=O)NCN2CCCC2)=C(O)[C@@]2(O)C(=O)C3=C(O)c4c(O)cccc4[C@@](C)(O)C3CC12 (some centres not stated),active: 6.31 µM,–
CCOc1cc(S(=O)(=O)N2CC=C(c3ccc(F)cc3)CC2)c(OCC)cc1-n1cnnn1,–,inactive: -9.08%
COc1ccc2cc1Oc1ccc(cc1)CC1c3c(cc(OC)c4c3Oc3cc5c(cc3O4)CCNC5C2)CCN1C (configuration not stated),"inconclusive: 0.794 µM [inhibitor, full curve, poor fit]",–
COc1cc(OC)c(NC(=O)Cc2ccc(-n3c(C)nc4cccnc43)cc2)cc1Cl,"inconclusive: 0.631 µM [inhibitor, single point]",–
CCCCCC(=O)NNC(=S)NC(=O)c1ccc([N+](=O)[O-])cc1,"inconclusive: 28.2 µM [inhibitor, single point]",–
C[n+]1ccccc1/C=C/c1ccc(C#N)cc1,"inconclusive: 20 µM [inhibitor, partial curve]",–
N#CCc1nn2c(-c3ccccc3)ccnc2c1C#N,"inconclusive: 39.8 µM [inhibitor, single point]",–
O=C(Nc1cccc(N2C(=O)C3C4C=CC(C4)C3C2=O)c1)c1cccs1 (configuration not stated),–,inactive: -7.49%
CC1=C(C(=O)OCC2CCCO2)C(c2ccc(C)o2)C2=C(CC(c3ccc(N(C)C)cc3)CC2=O)N1 (configuration not stated),"inconclusive: 0.501 µM [inhibitor, single point]",–
CCOC(=O)c1c(NC2OC(=O)c3c2ccc(OC)c3OC)sc(C(=O)OC(C)(C)C)c1C (configuration not stated),–,inactive: -2.54%
Cc1cccc(Cn2ccc(-c3ccc(Cl)cc3)c(C#N)c2=O)c1,"inconclusive: 8.91 µM [inhibitor, single point]",–
O=C(NCc1ccccc1)c1nc(S(=O)(=O)Cc2ccccc2)ncc1Cl,"inconclusive: 10 µM [inhibitor, full curve, poor fit]",–
c1csc(CNc2ncnc3ccc(-c4ccc5c(c4)OCCO5)cc23)c1,inactive,–
CC1CCN(C(=O)CN(Cc2ccccc2)S(C)(=O)=O)CC1,"inconclusive: 7.08 µM [inhibitor, single point]",–
COc1ccc(C(=O)Nc2ccc3c(c2)CCCN3C(=O)c2cccs2)c(OC)c1,"inconclusive: 22.4 µM [inhibitor, partial curve, poor fit]",–
COc1ccc(-c2csc(/C(C#N)=C\c3ccc(O)c([N+](=O)[O-])c3)n2)cc1OC,"inconclusive: 2.24 µM [inhibitor, partial curve]",–
